# Laboratory results from the supplement of paper PMC8728848.
# The list shows a part of the results.
# B1: Pwp7 (Candida glabrata) (protein)
# chain: MGSSHHHHHHSSGLVPRGSHMASKNPVDFPNLCQYPNLDGAVAGFDTEIYNADPSILINFSLWPILQFPKEWHKTIGRAITTQTNFKLPASDTTLFGVSIPTQNILIEFRGYFIPPKSGTYTFALYLTDDGSAMFLGNDAAFPCGNITSWSNPTNDQVSVSDYDPKKKTLTVYMVAGVAYPLRIAYYNREKGGSLTASFVDPDGLTHSDWNGYIWTLPSCDNCKYS
# How the values were obtained:
# Test in all cases: glycan array binding signal (z-score within array); higher = stronger binding
# Conditions in all cases: glycan notation: IUPAC condensed, linker removed
# [1] = molecular target: Fuc(a1-2)Gal(b1-4)[Fuc(a1-3)]GlcNAc(b1-2)Man(a1-3)[Fuc(a1-2)Gal(b1-4)[Fuc(a1-3)]GlcNAc(b1-2)Man(a1-6)]Man(b1-4)GlcNAc(b1-4)[Fuc(a1-6)]GlcNAc
# In short: (§1)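 The binding signal is a Z-score computed within each array and averaged over linkers. Arrays of the same protein sequence at different concentrations or buffers were also averaged together. Data originate from 3228 arrays in the Consortium for Functional Glycomics database, kept only where the protein sequence was available.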
# [2] = molecular target: Fuc(a1-2)Gal(b1-4)[Fuc(a1-3)]GlcNAc(b1-2)[Fuc(a1-2)Gal(b1-4)[Fuc(a1-3)]GlcNAc(b1-4)]Man(a1-3)[Fuc(a1-2)Gal(b1-4)[Fuc(a1-3)]GlcNAc(b1-2)Man(a1-6)]Man(b1-4)GlcNAc(b1-4)GlcNAc
# In short: as §1
# [3] = molecular target: Fuc(a1-2)Gal(b1-4)[Fuc(a1-3)]GlcNAc(b1-3)Gal(b1-4)[Fuc(a1-3)]GlcNAc
# In short: as §1
# [4] = molecular target: Fuc(a1-2)Gal(b1-4)[Fuc(a1-3)]GlcNAc(b1-3)Gal(b1-4)[Fuc(a1-3)]GlcNAc(b1-3)Gal(b1-4)[Fuc(a1-3)]GlcNAc
# In short: as §1
# [5] = molecular target: Fuc(a1-2)Gal(b1-4)[Fuc(a1-3)]GlcNAc(b1-3)GalNAc
# In short: as §1
# [6] = molecular target: Fuc(a1-2)Gal(b1-4)[Fuc(a1-3)]GlcNAc(b1-3)[Neu5Ac(a2-6)Gal(b1-4)GlcNAc(b1-6)]Gal(b1-4)Glc
# In short: as §1
# [7] = molecular target: Fuc(a1-2)Gal3S(b1-4)GlcNAc
# In short: as §1
# [8] = molecular target: Fuc(a1-2)Gal6S(b1-3)GlcNAc
# In short: as §1
# [9] = molecular target: Fuc(a1-2)Gal6S(b1-3)GlcNAc6S
# In short: as §1
# [10] = molecular target: Fuc(a1-2)Gal6S(b1-4)Glc
# In short: as §1
# [11] = molecular target: Fuc(a1-2)Gal6S(b1-4)Glc6S
# In short: as §1
# [12] = molecular target: Fuc(a1-2)[Gal(a1-3)]Gal
# In short: as §1
# [13] = molecular target: Fuc(a1-2)[Gal(a1-3)]Gal(b1-3)GalNAc
# In short: as §1
# [14] = molecular target: Fuc(a1-2)[Gal(a1-3)]Gal(b1-3)GalNAc(b1-3)Gal(a1-4)Gal(b1-4)Glc
# In short: as §1
# [15] = molecular target: Fuc(a1-2)[Gal(a1-3)]Gal(b1-3)GlcNAc
# In short: as §1
# [16] = molecular target: Fuc(a1-2)[Gal(a1-3)]Gal(b1-3)GlcNAc(b1-2)Man(a1-3)[Fuc(a1-2)[Gal(a1-3)]Gal(b1-3)GlcNAc(b1-2)Man(a1-6)]Man(b1-4)GlcNAc(b1-4)GlcNAc
# In short: as §1
# [17] = molecular target: Fuc(a1-2)[Gal(a1-3)]Gal(b1-3)GlcNAc(b1-2)Man(a1-3)[Fuc(a1-2)[Gal(a1-3)]Gal(b1-3)GlcNAc(b1-2)Man(a1-6)]Man(b1-4)GlcNAc(b1-4)[Fuc(a1-6)]GlcNAc
# In short: as §1
# [18] = molecular target: Fuc(a1-2)[Gal(a1-3)]Gal(b1-3)GlcNAc(b1-3)GalNAc
# In short: as §1
# [19] = molecular target: Fuc(a1-2)[Gal(a1-3)]Gal(b1-3)GlcNAc(b1-6)GalNAc
# In short: as §1
# [20] = molecular target: Fuc(a1-2)[Gal(a1-3)]Gal(b1-4)Glc
# In short: as §1
# [21] = molecular target: Fuc(a1-2)[Gal(a1-3)]Gal(b1-4)GlcNAc
# In short: as §1
# [22] = molecular target: Fuc(a1-2)[Gal(a1-3)]Gal(b1-4)GlcNAc(b1-2)Man
# In short: as §1
# [23] = molecular target: Fuc(a1-2)[Gal(a1-3)]Gal(b1-4)GlcNAc(b1-2)Man(a1-3)[Fuc(a1-2)[Gal(a1-3)]Gal(b1-4)GlcNAc(b1-2)Man(a1-6)]Man(b1-4)GlcNAc(b1-4)GlcNAc
# In short: as §1
# [24] = molecular target: Fuc(a1-2)[Gal(a1-3)]Gal(b1-4)GlcNAc(b1-2)Man(a1-3)[Fuc(a1-2)[Gal(a1-3)]Gal(b1-4)GlcNAc(b1-2)Man(a1-6)]Man(b1-4)GlcNAc(b1-4)[Fuc(a1-6)]GlcNAc
# In short: as §1
# [25] = molecular target: Fuc(a1-2)[Gal(a1-3)]Gal(b1-4)GlcNAc(b1-3)GalNAc
# In short: as §1
# [26] = molecular target: Fuc(a1-2)[Gal(a1-3)]Gal(b1-4)GlcNAc(b1-3)[Fuc(a1-2)[Gal(a1-3)]Gal(b1-4)GlcNAc(b1-6)]GalNAc
# In short: as §1
# [27] = molecular target: Fuc(a1-2)[Gal(a1-3)]Gal(b1-4)GlcNAc(b1-6)GalNAc
# In short: as §1
# [28] = molecular target: Fuc(a1-2)[Gal(a1-3)]Gal(b1-4)[Fuc(a1-3)]Glc
# In short: as §1
# [29] = molecular target: Fuc(a1-2)[Gal(a1-3)]Gal(b1-4)[Fuc(a1-3)]GlcNAc
# In short: as §1
# [30] = molecular target: Fuc(a1-2)[Gal(a1-3)]Gal(b1-4)[Fuc(a1-3)]GlcNAc(b1-3)GalNAc
# In short: as §1
# [31] = molecular target: Fuc(a1-2)[Gal(a1-4)]Gal(b1-4)GlcNAc
# In short: as §1
# [32] = molecular target: Fuc(a1-2)[GalNAc(a1-3)]Gal
# In short: as §1
# [33] = molecular target: Fuc(a1-2)[GalNAc(a1-3)]Gal(b1-3)GalNAc(a1-3)[Fuc(a1-2)]Gal(b1-4)GlcNAc
# In short: as §1
# [34] = molecular target: Fuc(a1-2)[GalNAc(a1-3)]Gal(b1-3)GalNAc(b1-3)Gal(a1-4)Gal(b1-4)Glc
# In short: as §1
# [35] = molecular target: Fuc(a1-2)[GalNAc(a1-3)]Gal(b1-3)GlcNAc
# In short: as §1
# [36] = molecular target: Fuc(a1-2)[GalNAc(a1-3)]Gal(b1-3)GlcNAc(b1-2)Man(a1-3)[Fuc(a1-2)[GalNAc(a1-3)]Gal(b1-3)GlcNAc(b1-2)Man(a1-6)]Man(b1-4)GlcNAc(b1-4)GlcNAc
# In short: as §1
# [37] = molecular target: Fuc(a1-2)[GalNAc(a1-3)]Gal(b1-3)GlcNAc(b1-2)Man(a1-3)[Fuc(a1-2)[GalNAc(a1-3)]Gal(b1-3)GlcNAc(b1-2)Man(a1-6)]Man(b1-4)GlcNAc(b1-4)[Fuc(a1-6)]GlcNAc
# In short: as §1
# [38] = molecular target: Fuc(a1-2)[GalNAc(a1-3)]Gal(b1-3)GlcNAc(b1-3)GalNAc
# In short: as §1
binder,measurement,setting,value
B1,glycan array binding signal (z-score),[1],0.615
same,glycan array binding signal (z-score),[2],-0.121
same,glycan array binding signal (z-score),[3],-0.47
same,glycan array binding signal (z-score),[4],-0.375
same,glycan array binding signal (z-score),[5],0.409
same,glycan array binding signal (z-score),[6],-0.059
same,glycan array binding signal (z-score),[7],-0.318
same,glycan array binding signal (z-score),[8],-0.966
same,glycan array binding signal (z-score),[9],-0.446
same,glycan array binding signal (z-score),[10],-0.508
same,glycan array binding signal (z-score),[11],-0.139
same,glycan array binding signal (z-score),[12],-0.131
same,glycan array binding signal (z-score),[13],-0.409
same,glycan array binding signal (z-score),[14],1.17
same,glycan array binding signal (z-score),[15],-0.834
same,glycan array binding signal (z-score),[16],0.472
same,glycan array binding signal (z-score),[17],1.13
same,glycan array binding signal (z-score),[18],-0.264
same,glycan array binding signal (z-score),[19],0.673
same,glycan array binding signal (z-score),[20],-0.515
same,glycan array binding signal (z-score),[21],-0.174
same,glycan array binding signal (z-score),[22],0.021
same,glycan array binding signal (z-score),[23],-0.802
same,glycan array binding signal (z-score),[24],0.728
same,glycan array binding signal (z-score),[25],0.048
same,glycan array binding signal (z-score),[26],0.334
same,glycan array binding signal (z-score),[27],0.537
same,glycan array binding signal (z-score),[28],-0.823
same,glycan array binding signal (z-score),[29],-0.054
same,glycan array binding signal (z-score),[30],-0.319
same,glycan array binding signal (z-score),[31],-0.779
same,glycan array binding signal (z-score),[32],-1.05
same,glycan array binding signal (z-score),[33],-0.476
same,glycan array binding signal (z-score),[34],0.982
same,glycan array binding signal (z-score),[35],-0.796
same,glycan array binding signal (z-score),[36],0.965
same,glycan array binding signal (z-score),[37],-0.65
same,glycan array binding signal (z-score),[38],1.56

# Reformatted: entries from further up
binder	measurement	setting	value
B1	glycan array binding signal (z-score)	[34]	0.982
same	glycan array binding signal (z-score)	[35]	-0.796
same	glycan array binding signal (z-score)	[36]	0.965
